Chains of the proteins cited; added tags and fusions are not shown.
UniProt Q64310: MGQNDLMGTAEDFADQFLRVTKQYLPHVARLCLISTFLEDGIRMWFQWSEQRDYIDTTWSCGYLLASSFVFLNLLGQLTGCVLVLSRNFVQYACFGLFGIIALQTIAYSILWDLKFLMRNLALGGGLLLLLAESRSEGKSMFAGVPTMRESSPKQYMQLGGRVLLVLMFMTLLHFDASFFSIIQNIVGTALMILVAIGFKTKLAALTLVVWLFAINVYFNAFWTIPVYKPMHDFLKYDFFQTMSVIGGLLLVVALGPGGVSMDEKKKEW
UniProt P09405: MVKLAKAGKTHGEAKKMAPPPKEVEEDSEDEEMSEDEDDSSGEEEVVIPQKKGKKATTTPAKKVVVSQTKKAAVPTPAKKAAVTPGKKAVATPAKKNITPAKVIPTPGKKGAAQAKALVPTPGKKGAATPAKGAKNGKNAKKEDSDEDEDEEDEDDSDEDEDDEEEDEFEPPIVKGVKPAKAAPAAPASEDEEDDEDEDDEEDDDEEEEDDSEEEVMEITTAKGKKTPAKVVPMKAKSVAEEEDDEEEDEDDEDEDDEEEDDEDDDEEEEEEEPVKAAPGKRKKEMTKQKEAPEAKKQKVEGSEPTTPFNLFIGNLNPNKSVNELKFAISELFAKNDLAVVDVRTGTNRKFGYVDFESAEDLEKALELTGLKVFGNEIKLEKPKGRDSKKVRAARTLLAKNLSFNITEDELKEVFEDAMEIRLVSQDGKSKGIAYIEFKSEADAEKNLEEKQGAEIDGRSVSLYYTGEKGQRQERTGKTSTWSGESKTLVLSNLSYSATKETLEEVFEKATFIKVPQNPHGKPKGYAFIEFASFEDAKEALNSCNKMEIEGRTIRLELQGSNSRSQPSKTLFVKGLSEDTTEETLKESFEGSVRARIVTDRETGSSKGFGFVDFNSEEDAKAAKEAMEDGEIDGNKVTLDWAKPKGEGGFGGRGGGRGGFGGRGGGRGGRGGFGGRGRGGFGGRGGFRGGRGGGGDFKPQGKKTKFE

In publication PMC7782846:

Molecular target: T1, STING (bait of the mass spectrometry of STING-binding proteins) (UniProt Q3TBT3)
T1 sequence: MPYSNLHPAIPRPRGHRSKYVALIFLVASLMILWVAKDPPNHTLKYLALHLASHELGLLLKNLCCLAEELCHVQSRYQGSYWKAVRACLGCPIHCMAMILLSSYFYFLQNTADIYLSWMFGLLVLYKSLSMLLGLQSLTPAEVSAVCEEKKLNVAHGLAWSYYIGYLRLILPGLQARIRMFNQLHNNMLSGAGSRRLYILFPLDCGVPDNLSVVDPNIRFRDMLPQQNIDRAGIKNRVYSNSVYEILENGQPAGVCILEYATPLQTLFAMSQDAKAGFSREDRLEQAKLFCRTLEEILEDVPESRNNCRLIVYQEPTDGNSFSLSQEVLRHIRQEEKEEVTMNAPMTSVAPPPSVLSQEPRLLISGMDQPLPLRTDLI
Experiment: affinity purification with mass spectrometry; lysate (1% Triton X-100, 150 mM NaCl, pH 7.2) on anti-FLAG M2 Affinity Gel overnight at 4 °C, FLAG peptide elution, tryptic digest, LC-MS/MS

binding	Substance
binds	Surf4 (endogenous, hit of the mass spectrometry) (from UniProt Q64310 1-269)
binds	Ncl (from UniProt P09405 1-707)

Results are given in words; binding and its absence hold for the method and conditions named. Binding seen in cells or lysates may run through a third protein. A yes stands for co-enrichment or nearness to the bait. Other partners may have been found.
